Source: PubChem BioAssay AID2662 (National Center for Advancing Translational Sciences (NCATS), 2010)
Out of some 290,000 compounds screened, about 110 (0.038%) were called active. This list was built around the results that the source calls inconclusive (neither active nor inactive); the mix of calls is not that of the screen. Calls follow the shape of the dose curve; as a rule, active = well fitted inhibition curve with a large enough effect in the polarisation, with a control signal flat (not every such curve was filed as active); inconclusive = small, poorly fitted or top-dose-only effect, or effect the other way, or a change in a side signal; inactive = no such curve, though single readings can be large or run the other way; the % refers to the polarisation. Potencies of inconclusive entries are doubtful fits and often do not repeat. “Side channel” marks fits to a control or component signal instead of the main read-out.

The chains behind the UniProt entries cited, without tags or fusion partners.
UniProt Q03164, whole entry, looked up: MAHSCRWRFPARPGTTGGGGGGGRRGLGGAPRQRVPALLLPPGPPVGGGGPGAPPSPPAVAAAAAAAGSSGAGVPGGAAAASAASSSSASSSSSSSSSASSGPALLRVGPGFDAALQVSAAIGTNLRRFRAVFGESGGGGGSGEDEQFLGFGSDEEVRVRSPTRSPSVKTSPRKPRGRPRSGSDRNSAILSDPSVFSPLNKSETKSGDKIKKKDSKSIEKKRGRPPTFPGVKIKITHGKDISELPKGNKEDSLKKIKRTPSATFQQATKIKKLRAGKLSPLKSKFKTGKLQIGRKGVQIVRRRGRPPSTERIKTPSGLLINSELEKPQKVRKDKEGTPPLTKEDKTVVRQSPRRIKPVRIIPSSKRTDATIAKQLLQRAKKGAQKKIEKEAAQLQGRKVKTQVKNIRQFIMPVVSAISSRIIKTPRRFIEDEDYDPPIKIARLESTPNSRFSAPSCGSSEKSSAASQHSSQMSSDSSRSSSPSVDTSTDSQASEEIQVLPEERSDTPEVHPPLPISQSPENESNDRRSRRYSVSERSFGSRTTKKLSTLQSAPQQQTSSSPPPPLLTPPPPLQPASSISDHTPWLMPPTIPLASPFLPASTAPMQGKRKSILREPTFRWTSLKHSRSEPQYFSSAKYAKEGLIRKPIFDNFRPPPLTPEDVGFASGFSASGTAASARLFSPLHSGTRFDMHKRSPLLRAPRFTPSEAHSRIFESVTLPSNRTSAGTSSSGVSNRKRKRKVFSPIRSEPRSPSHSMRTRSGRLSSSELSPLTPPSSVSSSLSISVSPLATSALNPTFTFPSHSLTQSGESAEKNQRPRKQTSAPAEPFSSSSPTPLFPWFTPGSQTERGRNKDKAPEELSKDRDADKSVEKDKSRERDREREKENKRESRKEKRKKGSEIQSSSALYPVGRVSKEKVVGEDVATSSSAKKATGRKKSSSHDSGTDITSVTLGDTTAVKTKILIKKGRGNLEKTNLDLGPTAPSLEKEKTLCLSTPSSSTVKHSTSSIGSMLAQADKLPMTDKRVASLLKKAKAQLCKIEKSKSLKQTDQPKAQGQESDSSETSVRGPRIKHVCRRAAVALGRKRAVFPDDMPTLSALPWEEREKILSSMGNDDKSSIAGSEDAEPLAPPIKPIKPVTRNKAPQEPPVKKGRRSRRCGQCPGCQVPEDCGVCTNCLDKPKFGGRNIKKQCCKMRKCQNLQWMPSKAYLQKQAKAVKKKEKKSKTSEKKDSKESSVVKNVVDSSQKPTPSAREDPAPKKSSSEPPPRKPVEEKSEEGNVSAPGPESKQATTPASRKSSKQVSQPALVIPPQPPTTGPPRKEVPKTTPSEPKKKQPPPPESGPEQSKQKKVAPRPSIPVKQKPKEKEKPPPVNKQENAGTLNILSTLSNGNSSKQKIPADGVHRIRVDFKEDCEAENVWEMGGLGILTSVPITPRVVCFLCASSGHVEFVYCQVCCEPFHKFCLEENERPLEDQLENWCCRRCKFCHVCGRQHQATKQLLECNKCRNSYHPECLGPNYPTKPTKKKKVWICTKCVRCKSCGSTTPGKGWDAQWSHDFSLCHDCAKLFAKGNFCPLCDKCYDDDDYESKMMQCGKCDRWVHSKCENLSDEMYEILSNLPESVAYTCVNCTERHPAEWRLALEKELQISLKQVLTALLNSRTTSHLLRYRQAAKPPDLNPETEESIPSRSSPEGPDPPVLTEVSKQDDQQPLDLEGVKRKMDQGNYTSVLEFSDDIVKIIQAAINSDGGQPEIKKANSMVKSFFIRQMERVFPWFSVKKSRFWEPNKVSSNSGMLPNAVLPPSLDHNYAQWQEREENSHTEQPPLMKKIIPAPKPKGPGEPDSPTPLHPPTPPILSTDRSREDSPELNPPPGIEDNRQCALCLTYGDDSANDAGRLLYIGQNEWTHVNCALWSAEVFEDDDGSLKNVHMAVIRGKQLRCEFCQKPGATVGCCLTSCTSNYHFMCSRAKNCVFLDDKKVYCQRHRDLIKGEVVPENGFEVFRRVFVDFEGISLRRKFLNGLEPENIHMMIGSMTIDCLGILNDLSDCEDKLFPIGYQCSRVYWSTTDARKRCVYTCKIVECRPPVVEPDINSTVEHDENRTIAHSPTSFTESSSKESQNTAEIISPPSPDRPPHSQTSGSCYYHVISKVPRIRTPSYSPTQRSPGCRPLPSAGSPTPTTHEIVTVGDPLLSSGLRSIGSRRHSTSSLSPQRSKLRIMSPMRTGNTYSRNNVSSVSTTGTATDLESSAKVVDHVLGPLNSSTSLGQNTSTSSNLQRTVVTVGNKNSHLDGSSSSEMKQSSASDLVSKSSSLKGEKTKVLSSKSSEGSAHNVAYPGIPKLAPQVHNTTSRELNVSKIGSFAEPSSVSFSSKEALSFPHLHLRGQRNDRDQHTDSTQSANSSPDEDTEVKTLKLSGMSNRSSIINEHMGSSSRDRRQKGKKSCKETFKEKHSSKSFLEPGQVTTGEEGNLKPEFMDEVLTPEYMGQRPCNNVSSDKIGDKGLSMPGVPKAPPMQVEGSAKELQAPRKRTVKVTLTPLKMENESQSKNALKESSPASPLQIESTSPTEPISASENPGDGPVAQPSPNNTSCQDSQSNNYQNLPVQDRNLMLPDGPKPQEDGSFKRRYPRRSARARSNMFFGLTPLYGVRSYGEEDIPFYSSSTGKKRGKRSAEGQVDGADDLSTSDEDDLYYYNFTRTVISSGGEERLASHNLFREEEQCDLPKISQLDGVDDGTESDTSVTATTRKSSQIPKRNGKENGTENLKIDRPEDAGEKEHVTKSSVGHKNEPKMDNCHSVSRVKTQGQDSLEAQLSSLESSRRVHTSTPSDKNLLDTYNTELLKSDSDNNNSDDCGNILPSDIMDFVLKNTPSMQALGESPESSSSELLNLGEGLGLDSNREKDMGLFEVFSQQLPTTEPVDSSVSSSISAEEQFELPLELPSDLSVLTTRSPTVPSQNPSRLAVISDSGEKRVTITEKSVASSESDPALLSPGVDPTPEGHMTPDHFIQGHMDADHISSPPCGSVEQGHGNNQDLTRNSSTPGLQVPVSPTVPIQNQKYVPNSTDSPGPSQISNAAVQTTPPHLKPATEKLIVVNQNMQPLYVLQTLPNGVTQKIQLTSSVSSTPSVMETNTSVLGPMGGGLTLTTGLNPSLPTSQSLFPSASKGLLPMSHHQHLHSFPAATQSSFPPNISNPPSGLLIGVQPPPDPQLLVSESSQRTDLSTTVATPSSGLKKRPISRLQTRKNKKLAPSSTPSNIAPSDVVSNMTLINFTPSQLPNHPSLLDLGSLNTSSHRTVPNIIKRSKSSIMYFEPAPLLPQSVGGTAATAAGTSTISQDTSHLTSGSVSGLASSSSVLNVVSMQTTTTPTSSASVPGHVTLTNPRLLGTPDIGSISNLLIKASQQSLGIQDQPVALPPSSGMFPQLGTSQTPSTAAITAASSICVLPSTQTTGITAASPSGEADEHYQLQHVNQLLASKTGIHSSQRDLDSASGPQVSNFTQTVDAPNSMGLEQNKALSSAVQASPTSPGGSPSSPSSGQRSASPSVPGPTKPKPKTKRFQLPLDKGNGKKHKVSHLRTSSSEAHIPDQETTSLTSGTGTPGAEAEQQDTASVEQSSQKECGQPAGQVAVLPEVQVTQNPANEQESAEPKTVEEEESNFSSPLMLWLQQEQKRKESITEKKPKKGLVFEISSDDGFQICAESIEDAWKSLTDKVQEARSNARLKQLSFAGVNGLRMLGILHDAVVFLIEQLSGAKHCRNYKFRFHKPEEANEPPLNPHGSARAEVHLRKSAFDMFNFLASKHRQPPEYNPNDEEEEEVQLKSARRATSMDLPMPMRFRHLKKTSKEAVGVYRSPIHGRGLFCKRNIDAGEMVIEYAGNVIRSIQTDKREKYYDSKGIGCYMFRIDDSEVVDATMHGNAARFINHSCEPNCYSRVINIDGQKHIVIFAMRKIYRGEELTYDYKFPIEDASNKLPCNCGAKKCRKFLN

The compounds below were run against Histone-lysine N-methyltransferase 2A (Homo sapiens) (UniProt Q03164) (assay: qHTS Fluorescence Polarization Assay for Inhibitors of MLL CXXC domain - DNA interaction). Conditions: MLL-CXXC / FITC-HOXA9 DNA fluorescence polarization; series mostly up to 115 µM.
Procedure, shortened: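 Purified MLL-CXXC (added from a 7 uM solution) was preincubated 5 min at ambient with pinned compounds in 50 mM Tris-HCl pH 7.5, 50 mM NaCl, 1 mM DTT, 0.05% BSA. Fluorescein-labeled HOX-A9 DNA (50 nM solution) followed, 30 min, then polarization read.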
Potency is read from the fitted curve at half-maximal effect.

| SMILES | Potency |
| --- | --- |
| CCOc1ccc(NC(=O)CSc2nc3ccccc3c(=O)n2Cc2cccs2)cc1 | inconclusive: 31.6 µM [fluorescent, side channel, single point] |
| CC(C)Cn1cnc2sc3c(c2c1=N)CCCC3 | inconclusive: 70.8 µM [fluorescent, side channel, single point] |
| CN1CCS/C1=C/C=C1/SC(=S)N(Cc2ccccc2)C1=O | inconclusive: 89.1 µM [fluorescent, side channel, single point] |
| CN(C)c1ccc(CNCCC(Cc2ccccc2)c2ccco2)cc1 (stereo not given) | inconclusive: 35.5 µM [quencher, side channel, single point] |
| CCCCNS(=O)(=O)c1ccc2nc(SCC(=O)c3ccc(C#N)cc3)[nH]c2c1 | inactive |
| Cc1sc2ncn(CC(=O)NCCCC(=O)N3CCC(C(N)=O)CC3)c(=O)c2c1C | inconclusive: 31.6 µM [fluorescent, side channel, partial curve, poor fit] |
| CCOc1ccc(-c2nc(C#N)c(NCC(C)C)o2)cc1 | inactive |
| CN1CCN(CCC(=O)N/N=C/c2cc([N+](=O)[O-])ccc2O)CC1 | inconclusive: 1.26 µM [fluorescent, side channel, full curve, poor fit] |
| COc1cccc(N2CCN(CC(=O)c3c(C)[nH]c4ccccc34)CC2)c1 | inconclusive: 22.4 µM [quencher, side channel, partial curve] |
| COc1ccc(C(c2nnnn2CS(=O)(=O)c2ccc(C)cc2)N2CCN(c3ncccn3)CC2)cc1 (stereo not given) | inactive |
| CCc1nnc(NS(=O)(=O)c2ccc(NCc3cc(Cl)cc(Cl)c3O)cc2)s1 | inconclusive: 31.6 µM [inhibitor, single point] |
| CC(C)CCN1CN(S(=O)(=O)c2cccs2)c2nc3ccccc3nc21 | inactive |
| COc1ccc(N/N=C(/N=Nc2nc(C)cc(=O)[nH]2)c2ccccc2)cc1 | inconclusive: 31.6 µM [quencher, side channel, partial curve] |
| CCn1c(SCc2ccc(Cl)cc2)nc2nc3c(cc2c1=O)CCCC3 | inconclusive: 10 µM [fluorescent, side channel, single point] |
| CC(=O)c1c(C)[nH]c(C(=O)Nc2ccc(C)cc2Br)c1C | inconclusive: 39.8 µM [quencher, side channel, single point] |
| Cc1cc(C(F)(F)F)nn1CC(=O)NNC(=S)Nc1ccc(Cl)cc1 | inconclusive: 1.58 µM [fluorescent, side channel, full curve] |
| O=C(N=c1ccn(-c2nc3ccccc3nc2NS(=O)(=O)c2ccccc2)cc1)c1cccs1 | inconclusive: 70.8 µM [fluorescent, side channel, single point] |
| Oc1ccc(Br)cc1-c1nc2cnccn2c1NC1CCCCC1 | inactive |
| CN1CCN(C2=CC3=CC(=C(C#N)C#N)CCC3CC2)CC1 (stereo not given) | inconclusive: 1 µM [fluorescent, side channel, full curve] |
| Cc1cccc(Oc2coc3cc(O)ccc3c2=O)c1 | inconclusive: 35.5 µM [fluorescent, side channel, single point] |

Not a retest: an excerpt of the list.

| SMILES | Potency |
| --- | --- |
| CN1CCS/C1=C/C=C1/SC(=S)N(Cc2ccccc2)C1=O | inconclusive: 89.1 µM [fluorescent, side channel, single point] |
| CN(C)c1ccc(CNCCC(Cc2ccccc2)c2ccco2)cc1 (stereo not given) | inconclusive: 35.5 µM [quencher, side channel, single point] |
| CCCCNS(=O)(=O)c1ccc2nc(SCC(=O)c3ccc(C#N)cc3)[nH]c2c1 | inactive |

Additional compounds follow.

| SMILES | Potency |
| --- | --- |
| CCOC(=O)c1cc(-c2ccc(OC)cc2OC)nn1-c1ccc(C(=O)O)cc1 | inconclusive: 1 µM [fluorescent, side channel, full curve, poor fit] |
| Cn1c[n+](C)cc1/C=N/O | inactive |
| CC(C)C1=CC2=CC[C@@H]3[C@](C)(CCC[C@@]3(C)C(=O)O)[C@H]2CC1 | inactive |
| CC(=O)Nc1nc(SCC(=O)NCc2ccc(F)cc2)[nH]c(=O)c1NC(=O)c1cccs1 | inconclusive: 10 µM [fluorescent, side channel, full curve] |
| O=C1ON=C(c2ccc(Cl)cc2)/C1=C/c1ccc(O)cc1 | inconclusive: 15.8 µM [inhibitor, partial curve] |
| COc1ccc(NC(=O)CN2CCCC2)cc1 | inactive |
| O=C(CCc1c[nH]c2ccccc12)NCCc1ccc(Cl)cc1 | inactive |
| CNC(=O)[C@H](Cc1c[nH]c2ccccc12)NC(=O)[C@@H](CC(=O)NO)CC(C)C | inactive |
| COc1ccc(/C=C2/SC(c3ccc(C)cc3)=NC2=O)cc1OC | inconclusive: 44.7 µM [fluorescent, side channel, single point] |
| C=CCNC1=C(Cl)C(=O)c2ccccc2C1=O | inconclusive: 89.1 µM [inhibitor, single point] |
| C=CCOc1ccc(CNc2ccc(NC(=O)CCC)cc2)cc1OCC | inconclusive: 14.1 µM [fluorescent, side channel, single point] |
| COc1cccc(N2CC(C(=O)Nc3nnc(SCc4cccnc4)s3)CC2=O)c1 (stereo not given) | inactive |
| Cc1ccc(CNC(=O)C2CCC(=O)N(CCc3cccc(F)c3)C2)s1 (stereo not given) | inconclusive: 5.62 µM [quencher, side channel, single point] |
| Cc1cc(/C=c2\sc3nc4ccccc4n3c2=O)c(C)n1-c1ccc(C(=O)O)cc1 | inconclusive: 44.7 µM [fluorescent, side channel, partial curve] |
| c1cc2ccc3ccc(-n4cnnn4)c4ccc(c1)c2c34 | inactive |
| Cc1sc(C(=O)Nc2ccc3ccccc3c2)cc1CC(=O)O | inconclusive: 7.08 µM [inhibitor, single point] |
| CSCCC(NC(=O)c1ccccc1Cl)C(=O)N(C)Cc1cccs1 (stereo not given) | inconclusive: 15.8 µM [quencher, side channel, single point] |
| O=C(Nc1ccc(S(=O)(=O)Nc2nccs2)cc1)c1ccc(F)c(S(=O)(=O)N2CCOCC2)c1 | inconclusive: 7.94 µM [fluorescent, side channel, partial curve] |
| O=C(Cc1cccs1)N1CCN(S(=O)(=O)c2cccc([N+](=O)[O-])c2)CC1 | inconclusive: 11.2 µM [quencher, side channel, partial curve] |
| Cn1c2ccccc2c2cc(/C=N/NC(=O)c3cc(O)cc(O)c3)ccc21 | inconclusive: 8.91 µM [fluorescent, side channel, partial curve, poor fit] |
